This experiment is described as follows: qHTS Assay for Lipid Storage Modulators in Drosophila S3 Cells.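 For cell number change: cells counted by Cell Tracker Red CMTPX staining in the red channel.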 The note with it: BODIPY lipid droplet fluorescence, 18-24 h; for cell number change: measured here: cell count max response, cells fed with added oleic acid. In outline:
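Drosophila S3 cells loaded with oleic acid (400 uM, as added) and compounds at several concentrations; lipid droplets imaged by 488-nm laser-scanning cytometry, 500–530 nm intensity and object ratio to cell channel. Percent activity normalized to 20 uM Triacsin C.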

Setting [1] is: measured here: lipid fluorescence (Fed channel) AC50, cells fed with added oleic acid.
[2] abbreviates: measured here: cell number channel AC50, cells fed with added oleic acid.

The other results are listed elsewhere or left out. The main result of the screen is listed elsewhere. These columns were measured beside it and carry no call. The list favours compounds with an active or inconclusive main result. Potencies come from curve fits of mixed quality, noted in brackets.

For `CC1CCCCC1NC(=O)COC(=O)c1c2c(nc3ccccc13)/C(=C/c1ccco1)CC2` (configuration not stated), the cell number change was 3.58%. In addition, the AC50 under setting [1] was 7.31 µM [falling, single point].
As to `CCOc1ccc(C2NC(=O)NC(C)=C2C(=O)OCc2ccccc2)cc1` (configuration not stated), the cell number change was 3.28%. Moreover, the AC50 under setting [1] is 16.4 µM [falling, single point].
With `COc1ccc(OC)c2sc(NC(=O)c3ccc(S(=O)(=O)N(C)C)cc3)nc12`, the cell number change was -35.3%. The AC50 under setting [2] is 23.1 µM [falling, single point]. In addition, the half-maximal activity concentration (AC50) under setting [1] was 29.1 µM [falling, single point].
As for `O=C1c2ccccc2C(=O)N1CCc1nc(-c2cccnc2)no1`, the cell number change is 0.879%. Under setting [1], the AC50 is 3.26 µM [rising, single point].
Take `CN(C)S(=O)(=O)c1ccc(C(=O)NCC2(N3CCOCC3)CCCCC2)cc1`: the cell number change is 0.499%.
Regarding `CNC(=O)c1csc(-c2cccs2)n1`, the cell number change was -7.56%. In addition, the AC50 under setting [1] is 32.6 µM [falling, single point].
For `COC(=O)COc1ccc(S(=O)(=O)NCc2ccco2)cc1Cl`, the cell number change was -40%. Further, under setting [2], the AC50 was 20.6 µM [falling, partial curve].
As to `CCN(CC)CCCN(Cc1cc2cc(OC)ccc2[nH]c1=O)C(=O)Nc1ccc(F)cc1`, the cell number change was -14.8%.
The same measure, in the same setting: the figure for `COc1ccc(C(=O)c2c[nH]c(C(=O)N=CN(C)C)c2)cc1` is -18.4%.
As to `CCOC(=O)c1cc(NC(=O)Nc2ccccn2)c(C)nc1C`, the cell number change is -4.21%. In addition, under setting [1], the AC50 was 0.0082 µM [falling, full curve, poor fit].
Turning to `Cc1ccc(Oc2nc(-c3ccccc3)ncc2S(=O)(=O)c2ccc(C)cc2)cc1`, the cell number change amounted to 36.9%. Moreover, under setting [2], the AC50 was 0.082 µM [rising, partial curve, poor fit]. Also, the AC50 under setting [1] is 2.59 µM [rising, partial curve, poor fit].
Regarding `CCc1ccc(NC(=O)CNC(=O)c2nn(-c3ccc(OC)cc3)c(=O)c3ccccc23)cc1`, the AC50 under setting [1] is 6.51 µM [rising, single point].
Consider `COCCOC(=O)C1=C(C)Nc2ncnn2C1c1ccccc1` (configuration not stated), for which the AC50 under setting [2] is 0.58 µM [rising, single point].
Take `Cn1c(/C=C/c2ccc(Br)cc2)c([N+](=O)[O-])c(=O)n(C)c1=O`: the AC50 under setting [1] was 6.51 µM [falling, single point].
`Cc1ccc(C)n1-c1nn(S(=O)(=O)c2ccccc2)c2cccc(F)c12`: the cell number change was 33.3%. Besides, the AC50 under setting [2] is 0.092 µM [rising, full curve, poor fit]. In addition, the half-maximal activity concentration (AC50) under setting [1] was 0.231 µM [rising, full curve, poor fit].
For `CCCCCCCCCn1c2c(c(=N)c3c1CCC3)CCCC2`, the cell number change was -66.6%. Also, the AC50 under setting [2] is 2.06 µM [falling, full curve]. Also, the AC50 under setting [1] is 1.46 µM [falling, full curve].
For `O=S(=O)(NCC(Nc1ccccc1)c1ccccc1)c1ccc(Cl)cc1` (configuration not stated), the cell number change is -68.7%. For the same compound, under setting [2], the AC50 is 29.1 µM [falling, single point]. Besides, under setting [1], the AC50 was 11.6 µM [falling, single point].
As to `CCN(C(=O)CSc1nc(C)nc2sc(C)c(C)c12)c1ccc(F)cc1`, the cell number change was found to be 12.4%. Further, the AC50 under setting [1] is 0.326 µM [rising, partial curve, poor fit].
On to `Cc1c(S(=O)(=O)N2CCCCC2)c(=O)n(C)c(=O)n1C`, for which the cell number change was -37.3%. Further, the AC50 under setting [1] is 29.1 µM [falling, partial curve, poor fit].
For the compound `CC(N=C(NS(=O)(=O)c1ccc(Cl)cc1)c1ccccc1)C(=O)O` (configuration not stated), the cell number change is -14.9%. In addition, the AC50 under setting [2] was 0.184 µM [falling, full curve, poor fit]. The AC50 under setting [1] was 1.3 µM [falling, full curve, poor fit].
As for `O=C(O)c1[nH]c2ccccc2c1CC(=O)N1CCN(c2ccccc2)CC1`, the cell number change amounted to 10.8%. Also, the AC50 under setting [2] was 0.164 µM [falling, full curve, poor fit]. Also, the AC50 under setting [1] is 29.1 µM [rising, single point].
On to `COc1cc(C(=O)NNC(=O)NC2CCCCC2)cc(OC)c1OC`, for which the cell number change was -9.46%. In addition, the AC50 under setting [1] is 14.6 µM [falling, partial curve].
Turning to `COc1ccc([C@@H]2OC2(C(N)=O)C(N)=O)cc1`, the cell number change was -35.5%. For the same compound, the AC50 under setting [2] is 3.66 µM [falling, full curve]. The AC50 under setting [1] is 0.092 µM [falling, full curve].
Regarding `CCCC(C)C(=O)Nc1nc(C)c(-c2csc(Nc3ccccc3OC)n2)s1` (configuration not stated), the cell number change is -35.9%. Also, the AC50 under setting [2] is 4.61 µM [falling, full curve]. In addition, the AC50 under setting [1] was 4.11 µM [falling, partial curve].
As to `FC(F)(F)c1nnc2ccc(NCc3cccnc3)nn12`, the cell number change amounted to 3.91%.
As to `Cn1nnc(NC(=O)c2cccc(OCc3ccccc3)c2)n1`, the cell number change is 53.3%. In addition, under setting [2], the AC50 was 29.1 µM [rising, single point].
In the case of `COC(=O)c1sc(N2C(=O)C(O)=C(C(=O)c3ccc(C)o3)C2c2ccco2)nc1C` (configuration not stated), the cell number change amounted to 14.1%.
In the case of `CCCC(=O)NCCc1cc2ccc(OC)cc2[nH]c1=O`, the cell number change was found to be 118%. In addition, under setting [2], the AC50 was 14.6 µM [rising, partial curve]. For the same compound, the AC50 under setting [1] was 16.4 µM [rising, partial curve].
With `CCc1nc(OCc2ccccc2)c2sc3nc4c(cc3c2n1)COC(C)(C)C4`, the cell number change is -40.5%. For the same compound, the AC50 under setting [2] is 23.1 µM [falling, partial curve, poor fit].
Turning to `CCSc1nnc(NC(=O)[C@H](C)NC(=O)c2ccccc2Cl)s1`, under setting [1], the AC50 was 0.731 µM [falling, single point].
Turning to `CCCCn1c(N)c(N(CC(C)C)C(=O)c2ccc(OCC3CCCO3)cc2)c(=O)[nH]c1=O` (configuration not stated), the cell number change is -18.7%. Moreover, the AC50 under setting [1] is 6.51 µM [falling, single point].
As to `CCOC(=O)CSc1nnc(-c2c[nH]c3ccccc23)o1`, the cell number change is -3.85%. For the same compound, the AC50 under setting [1] is 0.651 µM [rising, single point].
On to `COc1cc(OC)cc(C(=O)NCC(=O)OCC(=O)N2c3ccccc3NC(=O)C2(C)C)c1`, for which the cell number change is 28.6%. Besides, the half-maximal activity concentration (AC50) under setting [2] is 4.61 µM [rising, full curve, poor fit]. Moreover, the AC50 under setting [1] was 0.58 µM [falling, single point].
For `COCCN1CCN(C(=O)C2CCC(=O)N(CCc3cccc(F)c3)C2)CC1` (configuration not stated), the cell number change is -0.578%.
`O=C(N1CCCCCC1)N1CCN(S(=O)(=O)N2CCCCC2)CC1`: the AC50 under setting [1] was 0.58 µM [falling, single point].
As to `CCN(CC(=O)Nc1ccccc1OC)C(=O)c1cccc(-n2cccc2)c1`, the cell number change was determined as 3.68%. Moreover, the AC50 under setting [1] is 6.51 µM [rising, single point].

Usually AC50 stands for the concentration at which the activity in the assay is half-maximal. A high value points to weaker potency.

Values taken from PubChem BioAssay AID2685 (National Center for Advancing Translational Sciences (NCATS), 2010).
